Measured values reported in article PMC11015564.

Experiments:
[1] = target: BbOsrR3::His fusion protein (Beauveria bassiana) (UniProt J5K4G2); experiment: co-IP; lysates of B. bassiana mycelia co-expressing the tagged proteins (wild type, ΔBbOsrR1, ΔBbOsrR3 or ΔBbClp1 background), grown in ¼ SDY or ¼ SDY with 4 mM H2O2 or 60 μM MND for 30 min; Anti-c-Myc, Anti-GFP or HisPur Ni-NTA magnetic beads, 4 °C overnight; Western blotting with anti-GFP, anti-Myc and anti-His antibodies
[2] = target: BbOsrR2::Myc fusion protein (Beauveria bassiana) (UniProt J5JXE0); experiment: as above

binding [1]	binding [2]	Substance
binds		BbOsrR2::Myc fusion protein (from UniProt J5JXE0)
	binds	BbClp1::eGFP fusion protein (from UniProt J5JJA4)
	binds	BbOsrR3::His fusion protein (from UniProt J5K4G2)

Results are given in words; binding and its absence hold for the method and conditions named. In cells and extracts the contact can be indirect. Binding can be weak; no strength is given.
